This note sets out measurements from patent publication US20230414629A1, “MATERIALS AND METHODS OF TREATING CANCER” (MONOPTEROS THERAPEUTICS, INC., priority 2020, published 2023).

This series can be described thus: pKa. It counts as physicochemical.

As to `CO[C@@H](C)c1c(NC(=O)Nc2ccnc(C(F)(F)F)c2)cnc2cc(Cl)nn12` [MLT-943], the pKa is below 5.

What is called pKa is the negative logarithm of the acid dissociation constant.
